Consider one substance from article PMC12375503.

The chains behind the UniProt entries cited, without tags or fusion partners. Residues count along the entry.
UniProt P06729, residues 25-351: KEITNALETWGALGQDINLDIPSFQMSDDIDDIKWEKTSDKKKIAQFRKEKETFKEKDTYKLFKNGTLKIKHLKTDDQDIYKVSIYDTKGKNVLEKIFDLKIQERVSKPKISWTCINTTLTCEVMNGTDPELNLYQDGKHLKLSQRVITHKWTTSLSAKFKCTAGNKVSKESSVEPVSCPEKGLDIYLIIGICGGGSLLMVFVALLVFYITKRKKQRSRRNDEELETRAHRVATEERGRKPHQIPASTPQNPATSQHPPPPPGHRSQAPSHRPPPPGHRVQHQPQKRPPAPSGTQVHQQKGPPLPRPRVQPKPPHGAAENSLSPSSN
UniProt P19256, residues 29-250: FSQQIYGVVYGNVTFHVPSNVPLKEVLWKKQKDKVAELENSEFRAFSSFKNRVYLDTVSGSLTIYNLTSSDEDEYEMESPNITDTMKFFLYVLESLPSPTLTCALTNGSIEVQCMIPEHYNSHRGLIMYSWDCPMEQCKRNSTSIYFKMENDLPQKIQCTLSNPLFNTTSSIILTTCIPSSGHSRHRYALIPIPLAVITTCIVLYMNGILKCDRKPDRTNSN

Test [1] addresses CD2 (human (endogenous in CD8+ T cells from human blood)) (UniProt P06729). In words: co-IP; lysate (strong RIPA buffer with protease inhibitors) of CTLs cocultured with MDA-MB-231 cells (1:5, 24 h); anti-CD2 antibody 1:100, 4°C, 12 h; Protein A/G magnetic beads; western blot for CD58; IgG negative control; groups CTL, sh-NC CTL and sh-CD2 CTL (CD2 knock-down). (Immunoblotting shows a protein as a band on a membrane.)

Test [2] has the same target. In words: co-IP; lysate (RIPA buffer) of homogenised mouse subcutaneous MDA-MB-231 tumor tissue after injection of sh-NC or sh-CD2 CTLs; anti-CD2 antibody 1:100, 4°C, 12 h; Protein A/G magnetic beads; western blot for CD58; IgG negative control.

No constants are given. Whether binding was seen depends on the method and setting. In cells and extracts the contact can be indirect. Some entries that bind do so weakly or less than the wild type.

On to “CD58 (from UniProt P19256 29-250) (ligand)”, for which the binding entry in test [1] and in test [2] was “binds” in each case.
